Measured values published in article PMC11207566.

Chains of the proteins cited; added tags and fusions are not shown.
UniProt A0A5J6CYG6, entry or part of it: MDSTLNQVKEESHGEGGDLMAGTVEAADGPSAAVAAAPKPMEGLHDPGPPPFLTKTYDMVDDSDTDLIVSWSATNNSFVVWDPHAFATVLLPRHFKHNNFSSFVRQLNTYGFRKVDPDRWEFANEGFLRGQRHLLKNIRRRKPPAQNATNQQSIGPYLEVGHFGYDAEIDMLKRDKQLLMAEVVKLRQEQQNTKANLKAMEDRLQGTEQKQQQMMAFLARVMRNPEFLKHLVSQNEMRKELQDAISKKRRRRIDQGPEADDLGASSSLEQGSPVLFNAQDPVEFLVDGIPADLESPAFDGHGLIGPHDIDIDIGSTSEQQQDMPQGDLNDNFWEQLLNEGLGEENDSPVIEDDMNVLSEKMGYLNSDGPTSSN

Molecular target: HSF17 (Zea mays) (UniProt A0A5J6CYG6)
Test: EMSA
Conditions: Native-PAGE EMSA, biotin probe, LightShift chemiluminescent kit; pH and temperature not stated; recombinant protein; protein details: His (pET32a, vector-encoded fusion not detailed); label: 5' biotin

## CTTATCTGATTCCAGTTCCACAAGTTTCTCTCTGATTCGAATCCC (double strand) [pDE18-ACAAGTTTCT probe]
  binding result: binds

For at least one entry, the source does not settle the construct or the ends of the probe.
